According to paper doi:10.1101/2020.07.05.188557:
Results are given in words; binding and its absence hold for the method and conditions named. Binding seen in cells or lysates may run through a third protein. Some binding calls cover weakened binding; strength is not graded here. Tags and fused reporters may be left off the sequences shown.

T1: Can1-Cub-GST-6xHA (S. cerevisiae) (UniProt P04817)
T1 sequence: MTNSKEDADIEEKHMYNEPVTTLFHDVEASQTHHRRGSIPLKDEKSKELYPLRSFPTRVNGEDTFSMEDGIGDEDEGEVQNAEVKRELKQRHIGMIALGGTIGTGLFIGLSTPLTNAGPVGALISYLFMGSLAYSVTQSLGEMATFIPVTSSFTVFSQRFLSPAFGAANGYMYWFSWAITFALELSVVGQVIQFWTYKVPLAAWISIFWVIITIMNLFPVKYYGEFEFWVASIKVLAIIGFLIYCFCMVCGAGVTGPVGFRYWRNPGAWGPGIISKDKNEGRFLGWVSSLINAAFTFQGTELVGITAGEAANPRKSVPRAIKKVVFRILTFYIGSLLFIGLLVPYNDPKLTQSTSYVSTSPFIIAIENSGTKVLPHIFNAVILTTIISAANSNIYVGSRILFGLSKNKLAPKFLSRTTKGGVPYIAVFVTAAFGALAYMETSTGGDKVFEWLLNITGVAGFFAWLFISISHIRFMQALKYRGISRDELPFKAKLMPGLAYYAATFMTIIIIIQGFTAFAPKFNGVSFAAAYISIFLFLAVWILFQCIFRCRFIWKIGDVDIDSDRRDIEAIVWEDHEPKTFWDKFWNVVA

T2: Agp1-Cub-GST-6xHA (S. cerevisiae) (UniProt P25376)
T2 sequence: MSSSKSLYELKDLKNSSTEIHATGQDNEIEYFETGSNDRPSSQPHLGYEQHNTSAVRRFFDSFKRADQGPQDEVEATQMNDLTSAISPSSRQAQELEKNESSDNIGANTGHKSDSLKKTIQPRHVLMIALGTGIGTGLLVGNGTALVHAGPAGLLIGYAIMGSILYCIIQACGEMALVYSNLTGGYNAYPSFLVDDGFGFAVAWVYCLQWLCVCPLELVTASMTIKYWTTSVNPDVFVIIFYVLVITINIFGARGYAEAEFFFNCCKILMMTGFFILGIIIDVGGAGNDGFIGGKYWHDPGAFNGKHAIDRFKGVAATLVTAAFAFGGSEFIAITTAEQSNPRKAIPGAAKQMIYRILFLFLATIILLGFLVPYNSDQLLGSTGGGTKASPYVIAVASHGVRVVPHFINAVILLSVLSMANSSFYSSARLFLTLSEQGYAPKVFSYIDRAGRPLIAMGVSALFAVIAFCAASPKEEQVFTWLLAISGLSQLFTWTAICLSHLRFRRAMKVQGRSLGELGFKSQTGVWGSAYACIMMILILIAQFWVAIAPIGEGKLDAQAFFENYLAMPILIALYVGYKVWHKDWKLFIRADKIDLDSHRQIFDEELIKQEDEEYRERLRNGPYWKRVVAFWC

T3: Gnp1-Cub-GST-6xHA (S. cerevisiae) (UniProt P48813)
T3 sequence: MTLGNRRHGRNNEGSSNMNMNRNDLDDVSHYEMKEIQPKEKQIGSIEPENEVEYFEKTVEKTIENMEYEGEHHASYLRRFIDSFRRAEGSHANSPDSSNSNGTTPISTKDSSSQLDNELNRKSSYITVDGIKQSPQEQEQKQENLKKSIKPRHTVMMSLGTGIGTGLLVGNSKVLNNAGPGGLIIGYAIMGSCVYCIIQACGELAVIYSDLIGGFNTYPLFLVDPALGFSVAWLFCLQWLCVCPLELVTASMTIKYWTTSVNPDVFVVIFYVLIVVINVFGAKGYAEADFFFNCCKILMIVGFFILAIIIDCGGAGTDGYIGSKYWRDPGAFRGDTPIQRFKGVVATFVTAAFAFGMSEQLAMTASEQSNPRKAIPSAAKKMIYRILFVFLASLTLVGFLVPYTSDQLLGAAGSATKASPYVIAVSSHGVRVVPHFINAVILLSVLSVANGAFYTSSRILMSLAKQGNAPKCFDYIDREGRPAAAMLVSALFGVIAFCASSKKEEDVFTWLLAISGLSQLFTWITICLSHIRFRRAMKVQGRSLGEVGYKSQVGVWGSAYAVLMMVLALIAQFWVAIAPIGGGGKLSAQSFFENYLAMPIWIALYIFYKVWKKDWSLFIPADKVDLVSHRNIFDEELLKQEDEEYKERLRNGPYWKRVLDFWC

T4: Hxt1-Cub-GST-6xHA (S. cerevisiae) (UniProt P32465)
T4 sequence: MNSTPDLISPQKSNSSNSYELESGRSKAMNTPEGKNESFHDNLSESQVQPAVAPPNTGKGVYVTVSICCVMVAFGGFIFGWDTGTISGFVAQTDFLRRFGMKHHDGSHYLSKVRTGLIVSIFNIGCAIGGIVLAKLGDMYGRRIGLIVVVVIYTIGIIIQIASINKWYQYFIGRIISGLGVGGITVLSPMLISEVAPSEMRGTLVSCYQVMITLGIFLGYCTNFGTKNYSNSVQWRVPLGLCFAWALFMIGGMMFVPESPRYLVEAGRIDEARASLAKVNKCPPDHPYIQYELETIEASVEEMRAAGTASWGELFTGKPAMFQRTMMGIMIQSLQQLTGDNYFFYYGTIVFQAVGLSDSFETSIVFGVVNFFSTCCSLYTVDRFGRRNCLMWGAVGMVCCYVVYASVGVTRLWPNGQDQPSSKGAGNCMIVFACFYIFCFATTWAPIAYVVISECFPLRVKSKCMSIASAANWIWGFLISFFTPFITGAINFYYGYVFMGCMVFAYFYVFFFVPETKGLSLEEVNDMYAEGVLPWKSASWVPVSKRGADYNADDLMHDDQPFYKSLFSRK


Assays:
Assay in all cases: split reporter
[1] = molecular target: T1, Can1-Cub-GST-6xHA (S. cerevisiae)
[2] = molecular target: T2, Agp1-Cub-GST-6xHA (S. cerevisiae)
[3] = molecular target: T3, Gnp1-Cub-GST-6xHA (S. cerevisiae)
[4] = molecular target: T4, Hxt1-Cub-GST-6xHA (S. cerevisiae)

Row | binding [1] | binding [2] | binding [3] | binding [4] | Binder
1 | binds weakly | binds | binds | binds weakly | Shr3-NubA (protein, UniProt Q02774 1-210) MFSYSDFCSIGTAMILSATTFLMGVFFSNMPYDYHLLFNPNSTQEHFDLALRHYQILHETPLPVIVTLCVVAGIGLVGGTIKVFKPNPELQMFEYCSLGLYVLAICVFLTNVKTGIDCSVSHNWGEVTENQGLAVIASSNIILLVMFAGVIILQIGLWYSNWDLQKRLKEFYAQEEREAANAGKKTEKVDNAKKNDNKSKGAQKRKNAKK
2 | binds weakly | binds | binds |  | Shr3Δ94-NubA (protein, UniProt Q02774) MFSYSDFCSIGTAMILSATTFLMGVFFSNMPYDYHLLFNPNSTQEHFDLALRHYQILHETPLPVIVTLCVVAGIGLVGGTIKVFKPNPELQMFEYCSLGLYVLAICVFLTNVKTGIDCSVTENQGLAVIASSNIILLVMFAGVIILQIGLWYSNWDLQKRLKEFYAQEEREAANAGKKTEKVDNAKKNDNKSKGAQKRKNAKK
